Assay results: article PMC4480967
Results are given in words; binding and its absence hold for the method and conditions named. Some results given as binding are weak or reduced against the parent protein; the word gives no strength.

Amino acid sequences for entries named in this document (tags omitted). Residues count along the entry.
UniProt P22290, residues 211-525: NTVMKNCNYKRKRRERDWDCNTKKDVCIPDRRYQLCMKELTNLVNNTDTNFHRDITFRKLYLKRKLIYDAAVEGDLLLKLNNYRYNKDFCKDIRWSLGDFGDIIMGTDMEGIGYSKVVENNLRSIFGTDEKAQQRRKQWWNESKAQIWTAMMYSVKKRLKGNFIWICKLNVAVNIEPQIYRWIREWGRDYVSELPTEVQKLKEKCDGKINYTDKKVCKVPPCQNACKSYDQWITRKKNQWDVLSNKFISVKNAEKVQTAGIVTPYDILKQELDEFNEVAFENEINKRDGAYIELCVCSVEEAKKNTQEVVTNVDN

How the values were obtained:
[1] = target: Plasmodium vivax Duffy binding protein region II (Sal-1), expressed on the surface of COS-7 cells (Plasmodium vivax (Sal-1)) (UniProt P22290); test: erythrocyte-binding (rosetting) assay on transfected COS-7 cells; data not shown; human erythrocytes on COS cells expressing PvDBPII, number of rosettes
[2] = target: Plasmodium vivax Duffy binding protein region II (Sal-1), expressed on the surface of COS-7 cells (Plasmodium vivax (Sal-1)) (UniProt P22290); test: inhibition of erythrocyte binding (rosetting) to transfected COS-7 cells; monkey sera at 1:30 for 1 h at 37°C, then human O+ DARC-positive erythrocytes (10% suspension, 200 uL/well) for 2 h at room temperature, washed with PBS, rosettes counted

B1: human Duffy antigen receptor for chemokines, on erythrocytes (receptor, UniProt Q16570 1-336)
chain: MGNCLHRAELSPSTENSSQLDFEDVWNSSYGVNDSFPDGDYGANLEAAAPCHSCNLLDDSALPFFILTSVLGILASSTVLFMLFRPLFRWQLCPGWPVLAQLAVGSALFSIVVPVLAPGLGSTRSSALCSLGYCVWYGSAFAQALLLGCHASLGHRLGAGQVPGLTLGLTVGIWGVAALLTLPVTLASGASGGLCTLIYSTELKALQATHTVACLAIFVLLPLGLFGAKGLKKALGMGPGPWMNILWAWFIFWWPHGVVLGLDFLVRSKLLLLSTCLAQQALDLLLNLAEALAILHCVATPLLLALFCHQATRTLLPSLPLPEGWSSHLDTLGSKS
binding [1]: binds | binding [2]: binds
